# In PubChem BioAssay AID2685 (National Center for Advancing Translational Sciences (NCATS), 2010):
# The other results are listed elsewhere or left out. The main result of the screen is listed elsewhere. These columns were measured beside it and carry no call. The list favours compounds with an active or inconclusive main result. Potencies come from curve fits of mixed quality, noted in brackets.
# Assay: qHTS Assay for Lipid Storage Modulators in Drosophila S3 Cells;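 on cell number change: cells counted by Cell Tracker Red CMTPX staining in the red channel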
# Details: BODIPY lipid droplet fluorescence, 18-24 h; for cell number change: measured here: cell count max response, cells fed with added oleic acid
# Procedure, shortened: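 Drosophila S3 cells loaded with oleic acid (400 uM, as added) and compounds at several concentrations; lipid droplets imaged by 488-nm laser-scanning cytometry, 500–530 nm intensity and object ratio to cell channel. Percent activity normalized to 20 uM Triacsin C.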
# [1] = measured here: lipid fluorescence (Fed channel) AC50, cells fed with added oleic acid
# [2] = measured here: cell number channel AC50, cells fed with added oleic acid
SMILES,cell number change,AC50 [1],AC50 [2]
CC(=O)Nc1ccc2c(c1)nc(C)n2Cc1ccccc1,9.85%,"29.1 µM [rising, single point]",–
COc1cc(/C=N\NC(=O)c2ccc(Cn3nc([N+](=O)[O-])c(Cl)c3C)o2)ccc1O,78.9%,"6.51 µM [rising, single point]","10.3 µM [rising, partial curve]"
CCOC(=O)C1=C(c2cccc(Oc3ccccc3)c2)NC(=S)NC1C (centres undefined),-2.34%,–,–
O=C(NCc1nc2ccccc2[nH]1)c1ccc(Cl)c(S(=O)(=O)N2CCCC2)c1,–,"6.51 µM [rising, partial curve, poor fit]","4.61 µM [rising, partial curve, poor fit]"
COC(=O)N/N=C/c1ccc(Oc2ccccc2)cc1,28.4%,"0.58 µM [falling, single point]",–
c1ccc(Cc2ccc(OCCCNC3CCCC3)cc2)cc1,-23.8%,"1.16 µM [falling, single point]",–
O=S(=O)(c1ccc(C2CCCCC2)cc1)N1CCCC1,10%,"0.366 µM [falling, full curve]","0.013 µM [falling, full curve, poor fit]"
CN(c1ccccc1)S(=O)(=O)c1ccc(NC(=S)Nc2ccccc2)cc1,-7.34%,–,–
Cc1ccc(C2=NN=C(NC(=O)CSc3nnc4c5ccccc5n(C)c4n3)SC2)cc1,19.5%,"29.1 µM [rising, single point]",–
CCc1ccc(OCc2nnc(SCCN3CCOCC3)n2CC)cc1,-2.09%,"18.4 µM [rising, single point]",–
O=C(NCCCNC(=O)c1cccs1)c1cccs1,-10.7%,"0.0164 µM [falling, full curve]",–
O=C(CCC(=O)Nc1nnc(C2CCCCC2)s1)Nc1ccc(F)cc1,42.7%,"0.58 µM [falling, single point]","18.4 µM [rising, single point]"
Cc1cc(NC(=O)CN(C)S(=O)(=O)c2cnc[nH]2)ccc1Br,20%,"0.58 µM [rising, single point]",–
CC1(C)Cc2c(C#N)c(N3CCCC3)nc(-c3ccco3)c2CO1,-32.9%,–,"3.26 µM [falling, single point]"
CC1CC(C)CN(S(=O)(=O)c2ccc3c(c2)CCN3C(=O)C2CC2)C1 (centres undefined),-7.98%,"29.1 µM [rising, single point]",–
CCNC(=S)Nc1ccc(N2CCCCC2)cc1,-30.4%,"0.206 µM [falling, full curve, poor fit]","0.184 µM [falling, full curve, poor fit]"

# Some of the entries above in another layout.
SMILES	cell number change	AC50 [1]	AC50 [2]
CC1CC(C)CN(S(=O)(=O)c2ccc3c(c2)CCN3C(=O)C2CC2)C1 (centres undefined)	-7.98%	29.1 µM [rising, single point]	–
CCNC(=S)Nc1ccc(N2CCCCC2)cc1	-30.4%	0.206 µM [falling, full curve, poor fit]	0.184 µM [falling, full curve, poor fit]

# Next entries follow:

SMILES,cell number change,AC50 [1],AC50 [2]
Cc1ccc(C)c(S(=O)(=O)NCC(c2ccc3c(c2)OCO3)N2CCOCC2)c1 (centres undefined),28.2%,–,–
O=C(O)Cn1nc(-c2ccccc2)ccc1=O,3.17%,"18.4 µM [rising, partial curve]",–
CCC(=O)Nc1ccc(C=C(C(C)=O)C(C)=O)cc1,-33.7%,"0.731 µM [falling, full curve, poor fit]","0.82 µM [falling, full curve, poor fit]"
O=C(CSc1nc2ccccc2c(=O)n1Cc1ccc(C(=O)NC2CC2)cc1)NCc1ccco1,-167%,–,–
CSc1nc(N2CCOCC2)c2ccccc2n1,–,"6.51 µM [rising, partial curve]","6.51 µM [rising, single point]"
COc1cccc(C(=O)COc2cccc(NC(=O)c3cccc([N+](=O)[O-])c3)c2)c1,–,"16.4 µM [falling, partial curve]",–
COC(=O)c1cc(S(=O)(=O)N2CCN(c3ccc(OC)cc3)CC2)cn1C,47.7%,–,"20.6 µM [rising, single point]"
COC(=O)[C@@]12CCCN1[C@H](c1ccc(-c3ccccc3)cc1)[C@H]1C(=O)N(C)C(=O)[C@H]12,-23.1%,"0.0092 µM [rising, full curve, poor fit]",–
COc1ccccc1NC(=O)NCc1nc(-c2ccc(C(F)(F)F)cc2)no1,57.6%,–,"5.8 µM [rising, partial curve]"
Cc1ccc(CNCc2ccc3c(c2)OCO3)cc1,-1.06%,"29.1 µM [rising, single point]",–
Cc1cc(=O)oc(C)c1C(=O)Nc1ccc2nsnc2c1,23.5%,"18.4 µM [falling, partial curve]",–
Cc1cc(Br)ccc1OCCOCCN1CCCC1,7.94%,–,–
CCc1ccccc1NC(=O)CN(C)C(=O)c1cc(C2CC2)nn1-c1ccccc1,-12%,–,–
CCCN(CCC)C(=O)CCSCCC(=O)N(CCC)CCC,–,"20.6 µM [falling, partial curve]",–
CCC/C(=N/NC(=O)c1ccc2c(c1)OCO2)c1cccs1,-8.73%,"51.7 µM [rising, partial curve, poor fit]",–
